Measurements published in PMC6065199.

Amino acid sequences for entries named in this document (tags omitted).
UniProt Q15717: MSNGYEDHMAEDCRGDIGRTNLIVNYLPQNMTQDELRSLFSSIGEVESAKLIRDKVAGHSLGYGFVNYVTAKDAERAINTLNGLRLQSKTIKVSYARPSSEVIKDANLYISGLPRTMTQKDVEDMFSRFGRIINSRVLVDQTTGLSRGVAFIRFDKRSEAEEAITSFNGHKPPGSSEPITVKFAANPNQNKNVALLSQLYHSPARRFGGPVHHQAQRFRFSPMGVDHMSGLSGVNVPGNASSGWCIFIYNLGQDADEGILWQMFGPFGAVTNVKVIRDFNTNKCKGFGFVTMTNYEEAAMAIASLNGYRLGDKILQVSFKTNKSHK

Target: Hu protein R (HuR RNA binding protein) (human (endogenous in Jurkat and primary human T cells)) (UniProt Q15717)
Experiment: affinity purification with mass spectrometry; HuR immunoprecipitate from Jurkat T cell lysates (anti-HuR antibody; isotype control MOPC-21), SDS-PAGE, gel slices by molecular weight range, trypsin digest, LC-MS/MS, Mascot search

B1: fibrillarin (protein, UniProt P22087 1-321)
chain: MKPGFSPRGGGFGGRGGFGDRGGRGGRGGFGGGRGRGGGFRGRGRGGGGGGGGGGGGGRGGGGFHSGGNRGRGRGGKRGNQSGKNVMVEPHRHEGVFICRGKEDALVTKNLVPGESVYGEKRVSISEGDDKIEYRAWNPFRSKLAAAILGGVDQIHIKPGAKVLYLGAASGTTVSHVSDIVGPDGLVYAVEFSHRSGRDLINLAKKRTNIIPVIEDARHPHKYRMLIAMVDVIFADVAQPDQTRIVALNAHTFLRNGGHFVISIKANCIDSTASAEAVFASEVKKMQQENMKPQEQLTLEPYERDHAVVVGVYRPPPKVKN
- binding: binds

Results are given in words; binding and its absence hold for the method and conditions named. Binding seen in cells or lysates may run through a third protein. These calls come from enrichment with a bait or labelling near it, and not all partners need be listed.
